Values from PubChem BioAssay AID1508597 (Cure First, 2020)
Shown is an unselected part of the about 2,100 reagents, under one of the conditions tested. 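Calls flag viability under 80% in either arm, not effects specific to rucaparib; the reference for percent is not stated.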 A number with no mark means an inactive call. The numbers tell different reagents against one gene apart. Some reagents were tested in more than one well and are listed for each. Not given: the 100% reference.

Assay: 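Knock-downs altering ovarian cancer cell survival with or without PARP inhibitor rucaparib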 (primary screen)
System: human ovarian carcinoma lines grown from tumours: OCI-P5x (papillary serous) and OCI-C5x (clear cell)
Reagents: siRNA pool against human genes, 1.25 pmol siRNA per well
Duration: 72 h or 96 h, depending on the cell culture
Treatment: rucaparib 20 µM (about IC30) or vehicle, present until read-out
Rucaparib or vehicle: Vehicle
Cell line: OCI-P5x (serous)
Measurement: 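Luminescent ATP-based viability assay read 72 or 96 h after transfection, depending on culture, given as normalised percent viability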
Reading the numbers: viability, normalised: higher = more viable cells remaining
Call rule: 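a well counts as a hit if its normalised viability is under 80 percent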
Calls: active = viability under 80%; inactive = viability 80% or more

no.	Gene	reagent no.	technical replicate	viability, normalised (%)
1	PKLR (pyruvate kinase L/R)	1	1	92.8
2	PKLR (pyruvate kinase L/R)	1	2	94.9
3	PKLR (pyruvate kinase L/R)	1	3	106
4	NEK11 (NIMA related kinase 11)	1	1	70.1 (active)
5	NEK11 (NIMA related kinase 11)	1	2	65.3 (active)
6	NEK11 (NIMA related kinase 11)	1	3	79.3 (active)
7	MORC4 (MORC family CW-type zinc finger 4)	1	1	65.8 (active)
8	MORC4 (MORC family CW-type zinc finger 4)	1	2	84.1
9	MORC4 (MORC family CW-type zinc finger 4)	1	3	75.8 (active)
10	FOXP1 (forkhead box P1)	1	1	36 (active)
11	FOXP1 (forkhead box P1)	1	2	33.6 (active)
12	FOXP1 (forkhead box P1)	1	3	37.2 (active)
13	MED4 (mediator complex subunit 4)	1	1	70.7 (active)
14	MED4 (mediator complex subunit 4)	1	2	73.6 (active)
15	MED4 (mediator complex subunit 4)	1	3	79.4 (active)
16	PMAIP1 (phorbol-12-myristate-13-acetate-induced protein 1)	1	1	54.8 (active)
17	PMAIP1 (phorbol-12-myristate-13-acetate-induced protein 1)	1	2	55.2 (active)
18	PMAIP1 (phorbol-12-myristate-13-acetate-induced protein 1)	1	3	59.8 (active)
19	CDK12 (cyclin dependent kinase 12)	1	1	78 (active)
20	CDK12 (cyclin dependent kinase 12)	1	1	49.1 (active)
21	CDK12 (cyclin dependent kinase 12)	1	2	81.9
22	CDK12 (cyclin dependent kinase 12)	1	2	57.4 (active)
23	CDK12 (cyclin dependent kinase 12)	1	3	43.7 (active)
24	CDK12 (cyclin dependent kinase 12)	1	3	77.9 (active)
25	CDK12 (cyclin dependent kinase 12)	2	1	77.8 (active)
26	CDK12 (cyclin dependent kinase 12)	2	2	64.2 (active)
27	CDK12 (cyclin dependent kinase 12)	2	3	72.7 (active)
28	DCLRE1A (DNA cross-link repair 1A)	1	1	60.4 (active)
29	DCLRE1A (DNA cross-link repair 1A)	1	2	72.8 (active)
30	DCLRE1A (DNA cross-link repair 1A)	1	3	64.7 (active)
31	PHF10 (PHD finger protein 10)	1	1	57.6 (active)
32	PHF10 (PHD finger protein 10)	1	2	67.1 (active)
33	PHF10 (PHD finger protein 10)	1	3	114
34	CDK20 (cyclin dependent kinase 20)	1	1	52.7 (active)
35	CDK20 (cyclin dependent kinase 20)	1	2	67.6 (active)
36	CDK20 (cyclin dependent kinase 20)	1	3	62.2 (active)
37	SNAI1 (snail family transcriptional repressor 1)	1	1	62.7 (active)
38	SNAI1 (snail family transcriptional repressor 1)	1	2	58.9 (active)
39	SNAI1 (snail family transcriptional repressor 1)	1	3	73.2 (active)
40	SUV39H1 (SUV39H1 histone lysine methyltransferase)	1	1	83.2
41	SUV39H1 (SUV39H1 histone lysine methyltransferase)	1	1	78.8 (active)
42	SUV39H1 (SUV39H1 histone lysine methyltransferase)	1	2	82.7
43	SUV39H1 (SUV39H1 histone lysine methyltransferase)	1	2	91.8
44	SUV39H1 (SUV39H1 histone lysine methyltransferase)	1	3	81.7
45	SUV39H1 (SUV39H1 histone lysine methyltransferase)	1	3	85.1
46	SETD3	1	1	53.3 (active)
47	SETD3	1	2	54.6 (active)
48	SETD3	1	3	71.6 (active)
49	BAZ2B (bromodomain adjacent to zinc finger domain 2B)	1	1	66.4 (active)
50	BAZ2B (bromodomain adjacent to zinc finger domain 2B)	1	2	66.6 (active)
51	BAZ2B (bromodomain adjacent to zinc finger domain 2B)	1	3	66.9 (active)
52	POLD3 (DNA polymerase delta 3, accessory subunit)	1	1	72.2 (active)
53	POLD3 (DNA polymerase delta 3, accessory subunit)	1	2	76.5 (active)
54	POLD3 (DNA polymerase delta 3, accessory subunit)	1	3	69.2 (active)
55	GJA10 (gap junction protein alpha 10)	1	1	37.7 (active)
56	GJA10 (gap junction protein alpha 10)	1	2	71.4 (active)
57	GJA10 (gap junction protein alpha 10)	1	3	117

Laid out differently: 8 of the entries above
Gene	reagent no.	technical replicate	viability, normalised (%)
CDK12 (cyclin dependent kinase 12)	2	1	77.8 (active)
CDK12 (cyclin dependent kinase 12)	2	2	64.2 (active)
CDK12 (cyclin dependent kinase 12)	2	3	72.7 (active)
DCLRE1A (DNA cross-link repair 1A)	1	1	60.4 (active)
DCLRE1A (DNA cross-link repair 1A)	1	2	72.8 (active)
DCLRE1A (DNA cross-link repair 1A)	1	3	64.7 (active)
PHF10 (PHD finger protein 10)	1	1	57.6 (active)
PHF10 (PHD finger protein 10)	1	2	67.1 (active)
